Measurements from the supplement of paper PMC3334620.
The full ranking holds about 33,000 sequences; the median of “E-score (-0.5 to 0.5)” is about -8e-05, and the highest 2% start at about 0.23. The list shows a part of the results.

Each sequence was assayed against T1, Nrg2 (UniProt P38082) (assay: PBM E-score (8-mer binding enrichment) (E-score (-0.5 to 0.5)); higher = stronger / more preferred TF binding). Conditions: protein concentration: 100 nM; construct: GST-full length.
T1 sequence: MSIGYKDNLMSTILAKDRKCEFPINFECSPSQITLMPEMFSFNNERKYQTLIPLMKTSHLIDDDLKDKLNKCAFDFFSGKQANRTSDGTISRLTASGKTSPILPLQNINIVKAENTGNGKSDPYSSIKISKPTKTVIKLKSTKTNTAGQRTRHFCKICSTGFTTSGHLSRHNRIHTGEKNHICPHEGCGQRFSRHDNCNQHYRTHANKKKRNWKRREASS
Method in brief: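 Yeast transcription factors carrying a GST tag, as full-length proteins or DNA-binding domains, were produced by PURExpress in vitro transcription/translation. About 100-200 nM protein was applied to universal all-10-mer Agilent arrays, double-stranded by primer extension on fresh or once-stripped slides. Bound protein was detected with fluorescent anti-GST, and scans were normalised with masliner. The Universal PBM Analysis Suite gave each ungapped eight-base word, pooled with its reverse complement, an E-score, a modified Wilcoxon-Mann-Whitney statistic.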

| Sequence | PBM E-score |
| --- | --- |
| CAACAATC | 0.168 |
| CTTGTCCA | 0.0618 |
| CTTATTTA | 0.0567 |
| TAGGCCGA | -0.0619 |
| GCACCGGA | -0.167 |
| CCAATACC | 0.0351 |
| AAAAGGTC | -0.12 |
| CTGTTTTA | 0.118 |
| CAACATGC | 0.0729 |
| CGAGTGGA | -0.0407 |
| CGGCGCGC | 0.256 |
| ATCCAAAC | 0.184 |
| AGATTCAC | -0.202 |
| AACCAGCC | -0.0847 |
| ACGTGTTC | -0.115 |
| TACGCTAA | 0.0824 |
| TATATGGA | 0.0065 |
| CAAAAAAA | 0.245 |
| CATCAGCG | -0.213 |
| AGTTCCAC | 0.0885 |
| ACCTTCCT | -0.227 |
| CCGTAGAC | -0.0815 |

| Sequence | PBM E-score |
| --- | --- |
| AACCCCTC | -0.0867 |
| CAATAACG | 0.152 |
| TCTGTGAA | 0.0963 |
| CCCGATAA | -0.109 |
| GTATTGCA | -0.0204 |
| TATATTCA | 0.225 |
| CCAAGTGG | 0.0232 |
| CGCTCGGA | 0.0984 |
| TAGTACCA | -0.0772 |
| CAGTTATA | 0.114 |
| CAGTCGTC | -0.195 |
| CATCGAGC | 0.0814 |
| CTCCGGTC | -0.0492 |
| GAATGGCC | -0.0655 |
| CCTCCTGA | -0.183 |
| CTACTTAA | -0.136 |
| CATTCAAG | 0.135 |
| GAGTATGC | 0.115 |
| AGTCCTAG | -0.221 |
| CCTCCGTA | -0.0868 |
| GACACGTA | -0.199 |
| GGCTCACA | -0.0681 |

| Sequence | PBM E-score |
| --- | --- |
| AGCGTCTC | -0.0438 |
| AAGGACCG | 0.011 |
| CATGTCGG | 0.0655 |
| CAGCGTAG | -0.0519 |
| ACTTGACC | -0.104 |
| ACCGTGAC | -0.161 |
| AAAAATGG | 0.129 |
| TCCATACA | 0.0616 |
| CGTGGTAC | -0.172 |
| TATTTCCA | 0.0167 |
| AAGCGTTG | 0.0514 |
| AGGAGAGC | -0.332 |
| CTATAGCA | 0.0908 |
| CGGAGCCC | -0.257 |
| AGAAGACA | 0.0609 |
| ATACAGTA | 0.0537 |
| CAGCCGCG | 0.0167 |
| CCGGGCAG | -0.164 |
| AGACATAC | 0.0174 |
| AGAGGCAT | -0.0394 |
| CGGATTTA | 0.0741 |
| CCAGCAAC | -0.00319 |

Retrieved one by one from the list above (two):

| Sequence | PBM E-score |
| --- | --- |
| CTTGTCCA | 0.0618 |
| CGAGTGGA | -0.0407 |

Further records follow:

| Sequence | PBM E-score |
| --- | --- |
| GAATGTTA | 0.134 |
| AGTGTGAA | 0.186 |
| AGCGTCCG | -0.159 |
| AAAGAGAC | 0.0466 |
| ATGCATCG | 0.0353 |
| ACGGCGAC | 0.135 |
| AATTTAGG | 0.117 |
| AAGCATAA | -0.00973 |
| GATGCTAA | 0.149 |
| ACTCCGGC | 0.00303 |
| ATCGTAGC | 0.0886 |
| GACAACTA | 0.158 |
| AGCGTATC | -0.0443 |
| CGTAGGCC | -0.141 |
| GCCCTCGA | -0.113 |
| ACCAGCAA | 0.245 |
| CTACCCTC | 0.103 |
| ACGAGCCT | -0.18 |
| AGCTAGAC | -0.15 |
| GATTGGCA | -0.0954 |
